{"sequences": {"note": "Amino acid sequences for entries named in this document (tags omitted). Residues count along the entry.", "UniProt P62813, residues 28-455": "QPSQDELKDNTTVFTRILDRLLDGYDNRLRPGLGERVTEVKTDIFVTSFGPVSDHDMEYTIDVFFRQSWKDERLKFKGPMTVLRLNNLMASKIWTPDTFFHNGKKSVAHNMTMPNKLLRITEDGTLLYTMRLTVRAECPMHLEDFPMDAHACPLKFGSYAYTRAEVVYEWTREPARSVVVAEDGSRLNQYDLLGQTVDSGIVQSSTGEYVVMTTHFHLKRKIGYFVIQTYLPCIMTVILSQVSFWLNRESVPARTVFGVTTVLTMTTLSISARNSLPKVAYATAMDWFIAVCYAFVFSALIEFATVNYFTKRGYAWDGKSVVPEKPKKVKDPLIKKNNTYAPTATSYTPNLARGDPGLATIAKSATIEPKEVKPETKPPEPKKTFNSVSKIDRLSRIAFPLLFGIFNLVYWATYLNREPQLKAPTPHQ", "UniProt P15127, residues 764-1383": "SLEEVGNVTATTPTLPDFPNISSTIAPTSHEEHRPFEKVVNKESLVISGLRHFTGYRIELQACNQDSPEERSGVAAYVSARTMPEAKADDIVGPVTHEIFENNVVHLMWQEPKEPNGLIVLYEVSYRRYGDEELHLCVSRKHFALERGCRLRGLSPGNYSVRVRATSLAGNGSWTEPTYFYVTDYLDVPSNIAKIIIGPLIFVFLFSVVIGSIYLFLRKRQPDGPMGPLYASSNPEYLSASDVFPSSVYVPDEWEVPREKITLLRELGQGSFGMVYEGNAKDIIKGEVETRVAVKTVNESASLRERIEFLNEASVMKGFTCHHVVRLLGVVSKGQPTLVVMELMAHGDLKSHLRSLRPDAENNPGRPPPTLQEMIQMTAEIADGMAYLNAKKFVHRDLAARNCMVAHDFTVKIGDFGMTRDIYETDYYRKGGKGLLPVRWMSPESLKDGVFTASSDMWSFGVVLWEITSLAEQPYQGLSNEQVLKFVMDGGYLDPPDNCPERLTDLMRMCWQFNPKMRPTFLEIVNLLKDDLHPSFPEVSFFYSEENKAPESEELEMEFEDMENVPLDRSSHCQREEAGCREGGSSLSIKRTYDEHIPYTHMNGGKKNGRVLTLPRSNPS"}, "source": "paper PMC4435044", "binders": {"B1": {"name": "calnexin (protein, UniProt P35565 21-591)", "chain": "HDGHDDDMIDIEDDLDDVIEEVEDSKSKSDTSTPPSPKVTYKAPVPTGEVYFADSFDRGSLSGWILSKAKKDDTDDEIAKYDGKWEVDEMKETKLPGDKGLVLMSRAKHHAISAKLNKPFLFDTKPLIVQYEVNFQNGIECGGAYVKLLSKTSELNLDQFHDKTPYTIMFGPDKCGEDYKLHFIFRHKNPKTGVYEEKHAKRPDADLKTYFTDKKTHLYTLILNPDNSFEILVDQSVVNSGNLLNDMTPPVNPSREIEDPEDRKPEDWDERPKIADPDAVKPDDWDEDAPSKIPDEEATKPEGWLDDEPEYIPDPDAEKPEDWDEDMDGEWEAPQIANPKCESAPGCGVWQRPMIDNPNYKGKWKPPMIDNPNYQGIWKPRKIPNPDFFEDLEPFRMTPFSAIGLELWSMTSDIFFDNFIISGDRRVVDDWANDGWGLKKAADGAAEPGVVGQMLEAAEERPWLWVVYILTVALPVFLVILFCCSGKKQSNAMEYKKTDAPQPDVKDEEGKEEEKNKGDEEEEEEKLEEKQKSDAEEDGGTGSQDEEDSKPKAEEDEILNRSPRNRKPRRE"}}, "key": {"[1]": {"biological_target": "GABAA receptor α1 subunit (rat (endogenous in primary cerebral cortical neuronal cultures)) (UniProt P62813)", "experiment": "co-IP; 500 μg RIPA lysate of high-density rat cortical neuronal cultures incubated overnight at 4°C with 2 μg anti-α1 subunit or anti-insulin receptor β chain antibody and protein A agarose, nondenaturing; blotted with anti-calnexin; cells treated beforehand at 37°C with vehicle, vigabatrin, valproic acid, NCC 05-2090, baclofen or picrotoxin"}, "[2]": {"biological_target": "insulin receptor β chain (rat (endogenous in primary cerebral cortical neuronal cultures)) (UniProt P15127)", "experiment": "co-IP; 500 μg RIPA lysate of high-density rat cortical neuronal cultures incubated overnight at 4°C with 2 μg anti-α1 subunit or anti-insulin receptor β chain antibody and protein A agarose, nondenaturing; blotted with anti-calnexin; cells treated beforehand at 37°C with vehicle, vigabatrin, valproic acid, NCC 05-2090, baclofen or picrotoxin"}}, "note": "These are yes or no findings as the source states them, for the method shown. Binding seen in cells or lysates may run through a third protein. Some results given as binding are weak or reduced against the parent protein; the word gives no strength.", "data": [{"binder": "B1", "values": [{"measurement": "binding", "setting": "[1]", "value": "binds"}, {"measurement": "binding", "setting": "[2]", "value": "binds"}]}]}
